This assay deals with GFP-Ubx N51A (Drosophila). As to the kind of experiment: co-IP; S2R+ Drosophila cells co-transfected; lysate in NP40 buffer (20 mM Tris pH7.5, 150 mM NaCl, 2 mM EDTA, 1% NP40); 1 to 1.5 mg of proteins incubated 3 hr with GFP-Trap beads; 3 washes; Western blot. Background: Immunoblotting shows a protein as a band on a membrane.

Results are given in words; binding and its absence hold for the method and conditions named. In cells and extracts the contact can be indirect. Binding can be weak; no strength is given. Tags and fused reporters may be left off the sequences shown.

B1: HA-Trl (protein, UniProt Q08605 1-582)
chain: MSLPMNSLYSLTWGDYGTSLVSAIQLLRCHGDLVDCTLAAGGRSFPAHKIVLCAASPFLLDLLKNTPCKHPVVMLAGVNANDLEALLEFVYRGEVSVDHAQLPSLLQAAQCLNIQGLAPQTVTKDDYTTHSIQLQHMIPQHHDQDQLIATIATAPQQTVHAQVVEDIHHQGQILQATTQTNAAGQQQTIVTTDAAKHDQAVIQAFLPARKRKPRVKKMSPTAPKISKVEGMDTIMGTPTSSHGSGSVQQVLGENGAEGQLLSSTPIIKSEGQKVETIVTMDPNNMIPVTSANAATGEITPAQGATGSSGGNTSGVLSTPKAKRAKHPPGTEKPRSRSQSEQPATCPICYAVIRQSRNLRRHLELRHFAKPGVKKEKKTTSGKKSSSGSSGSGSGALSSSGSVPQVQTVQSLHTLQGVQVKKDPDAQQQQQQQQQQQQQQQQQAMTVSGATGGQVQQQVQQVQQQVQQQQQQQQQQQQQLQHHQIIDSSGNITTATTSAQAAAAAQQQAAGQQQQLVAQSDGSESGAPLSIAQVQTLQGHQIIGNLNQVNITDFQQQQPQQQQQQQQQQQQQQQQQQQTQQTL
As to B1, the binding result was “binds”.

For the origin of these results see article PMC6513553.
